Primary screen of a compound library

From ChEMBL document CHEMBL3988442, “University of Dundee, Small-Polar-MMV Screening Library” (2021).

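Whole-cell assay for inhibitors of Mycobacterium tuberculosis growth, labelled Cornell in the record; the read-out is not stated. The concentration is filed as 10 mM, unlikely as a test dose, so the dose is not known. The record gives no direction; compounds strong in two other growth screens of this library score well above the rest, so higher reads as stronger inhibition. About 53,000 compounds were tested under these conditions; 1.7% (about 900) showed 50% or more at least once.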

The filed quantity is “Percent Effect” (%).
The controls that fix the scale are not given in the record; negative values are as filed.
This is an unselected part of the compounds tested.

Compound	percent effect
CC1CN(Cc2ccccn2)CCN1c1ccc2nncn2n1 (centres undefined)	-33.89%
CCc1nc(C2CCCN2Cc2nnc(CC)o2)no1 (centres undefined)	-13.74%
Cc1cc(S(=O)(=O)Nc2onc(C)c2C)sc1C	14.52%
Cc1cc(NC(=O)CN2CCn3c(C)nnc3C2)no1	-27.55%
Cl.Clc1ccccc1CN1CCc2nc(C3CCNCC3)ncc2C1	5.857%
O=C(c1ccco1)N1CCCC(c2cc(C(F)F)n3ncnc3n2)C1 (centres undefined)	-4.595%
CCN(Cc1cccc2c1OCCO2)C(=O)NC(C)(C)C	10.99%
COc1ccc2c(c1)OCC(Cc1ccc(CN)cn1)C2 (centres undefined)	-16.12%
CN(C)c1ccc2c(c1)CN(C(=O)c1c[nH]cn1)C2c1cnco1 (centres undefined)	-32.71%
CC(C(=O)N1CCCC1)N1CCC(c2nccn2CC2CCC2)CC1 (centres undefined)	14.18%
Cc1csc(C2CCCCN2C(=O)c2cnn3ccc(C)nc23)n1 (centres undefined)	12.14%
COc1cc(NCc2c(C)noc2C)c(C(=O)N(C)C)cc1OC	2.461%
NC(=O)C1=NC2=NS(=O)(=O)c3ccccc3N2N1Cc1ccc(Cl)cc1	106.1%
CNC(=O)CN1CCC(CN(C)Cc2ccc(C)cc2C)CC1	1.07%
Cn1c(=O)ccn(CC(=O)Nc2cccnc2)c1=O	-32.27%
CS(=O)(=O)N1CCCC12CCCN(C(=O)c1ccno1)C2 (centres undefined)	20.75%
Cc1nc(CC(=O)NCCN2CCC(c3ccccc3C)C2)cs1 (centres undefined)	1.91%
CCNC(=O)NC(c1ccc(C)cc1)c1cccc(S(C)(=O)=O)c1 (centres undefined)	5.299%
CC1CCN(Cc2ccccc2CNC(=O)C2CNC(=O)N2)CC1 (centres undefined)	-0.9762%
c1ncn(CC2CCCN(Cc3nc(C4CC4)no3)C2)n1 (centres undefined)	18.94%
O=C(O)C(F)(F)F.O=C(O)C(F)(F)F.[H][C@@]12COC[C@@H](CC(=O)NCc3cccnc3)[C@]1([H])CN(C1CCCC1)C2	-4.35%
O=C(O)C(F)(F)F.c1ccc(N2CCCC3(COCCN(c4nccs4)C3)C2)nc1 (centres undefined)	51.66%
CCN(CC1CCOC1)C(=O)Nc1ccc(-n2cncn2)nc1 (centres undefined)	22.49%
[H][C@@]12CS(=O)(=O)C[C@]1([H])N(Cc1cc(Cl)cc(Cl)c1)CCN2CCC	-17.23%
CN(C)C(=O)COc1ccccc1CN1CCOC2(CCCC2)C1	19.08%
Cc1ccc(C(=O)NS(=O)(=O)Cc2ccc(F)cc2)cc1S(C)(=O)=O	3.806%
Cc1cc(C)n(CC2CN(CC(=O)NC3(C#N)CCCC3)CCO2)n1 (centres undefined)	-4.222%
CCc1noc(CN2CCN(C(=O)OC(C)(C)C)C(C)C2)n1 (centres undefined)	-1.305%
NC(=O)C1(c2cnccn2)CCCN1Cc1ccc(F)c(F)c1 (centres undefined)	-18.49%
Cn1cnc2c1C(COCc1ccccc1)N(Cc1ccncc1)CC2.O=C(O)C(F)(F)F.O=C(O)C(F)(F)F.O=C(O)C(F)(F)F (centres undefined)	35.2%
CCn1ncc2c1C(COCC1CC1)N(Cc1nccs1)CC2.O=C(O)C(F)(F)F.O=C(O)C(F)(F)F (centres undefined)	29.25%
N#CC1CCCN(c2ncnc3c2CCN(Cc2ccccc2)CC3)C1 (centres undefined)	23.13%
Cc1cc(C(=O)NCC(O)c2ccc(Cl)s2)c(C)o1 (centres undefined)	25.99%
Cn1cccc1C(=O)N1CCCCC1c1ccn2ccnc2n1 (centres undefined)	-4.09%
CN1CCCN(C(=O)c2cccc(S(=O)(=O)NCC3(C)COC3)c2)CC1	11.94%
COc1cc(F)ccc1-c1ncccc1NC(=O)C(C)C	-44.41%
Cc1nnnn1CCC(=O)N1CCC2(CCC(=O)N(CC3CC3)C2)CC1	2.29%
CC(C)c1nn(C)c(N(C)C)c1CNCc1ccc2c(c1)OCO2	33.69%
CC(=O)N[C@H]1CCO[C@@H](c2cccc(NC(=O)Cc3ccccc3)c2)C1	-12.69%
CC(C)c1nc(Cn2cncn2)n(-c2ccccn2)n1	-4.518%
CCN1Cc2cc(F)ccc2N(C(=O)C2CCC2)CCC1=O	4.201%
CCN(Cc1noc(C2CC2)n1)C(=O)c1onc2ccccc12	28.23%
COCC(=O)N1CCCC1c1cccc(Cc2ccccc2F)n1 (centres undefined)	-0.1292%
CCOC(C)c1nc(CN2CCC(NC(C)C)CC2)cs1 (centres undefined)	17.93%
O=c1c2cccc(C(F)(F)F)c2ncn1C1CCNC1 (centres undefined)	-2.535%
Cc1nc(C2CCCN(C(=O)c3ccncc3)C2)c2sccn12 (centres undefined)	-35.4%
COCc1cc(N(C)Cc2cnccn2)nc(C(C)(C)C)n1	26.97%
CCOC(=O)CNC(=O)N1CCN(c2ncccn2)CC1	-20.96%
O=C(C1=CC2(CCN(CCO)CC2)c2ccccc21)N1CCCC1.O=C(O)C(F)(F)F	42.49%
CC(C)(Cn1cnc(-c2ccccc2)c1-c1ccco1)N1CCOCC1	31.6%
COc1cc(Oc2ncccc2C(F)(F)F)ccc1CN1CCCC1	31.37%
Cn1ncc(NC(=O)c2noc3c2CCCC3)c1C(=O)N1CCCCC1	1.181%
CN(C)c1ncnc2c1CCN(c1ccccc1)CC2	-11.56%
O=C(O)C(F)(F)F.O=C(O)C(F)(F)F.c1csc(CN2CCCn3cnc(CN4CCCC4)c3C2)c1	-29%
CNC(=O)c1cccc(CNC(=O)C2CC(=O)N(CCN(C)C)C2)c1 (centres undefined)	11.3%
Cc1cccc(CNC2CCCc3c2cnn3C)c1.Cl (centres undefined)	-1.877%
O=C1CC2(CCSC2)C(=O)N1Cc1coc(-c2ccccc2)n1 (centres undefined)	-4.945%
CCc1[nH]c2ccc(CNC(=O)Cc3c(C)nc(N)nc3C)cc2c1C	-29.37%
CCOC1COC2(CCN(Cc3cccc(C#N)c3)CC2)C1.O=C(O)C(F)(F)F (centres undefined)	29.7%
Cn1ncc2c(=O)[nH]c(CN3CCCC3Cc3ccccc3)nc21 (centres undefined)	-9.899%
O=c1cc(CN2CCCC2)nc2n1CCCN(S(=O)(=O)C1CC1)C2	15.39%
COc1cccc2sc(OC3CN(C(=O)C4=COCCO4)C3)nc12	4.283%
COC(=O)C1CCN(C(=O)Cn2ccc(-c3ccc(F)cc3)n2)CC1	5.595%
COc1ccc(Cc2c(O)nc(SC)n(-c3ccccc3)c2=O)cc1	-12.72%
CCCn1ncnc1C(C)NC(=O)C1CCN(C(=O)C2CC2)CC1 (centres undefined)	19.29%
c1cnn(CCN2CCOC(Cn3cncn3)C2)c1 (centres undefined)	8.645%
Cc1c[nH]nc1C1CCN(C(=O)CC2CCCC2)C1 (centres undefined)	9.759%
O=C(O)CC(O)(CC(=O)O)C(=O)O.[H][C@]12CC[C@](O)(c3ccc(C)cn3)[C@@]1([H])CN(Cc1ccc(OC)cc1F)C2	-53.95%
COCC(=O)N[C@H](C)c1c(-c2ccc(OC)cc2)noc1C(=O)O	-24.1%
CN(C)S(=O)(=O)N1CCC2(COCc3cnc(-c4cccnc4)nc32)C1 (centres undefined)	-7.94%
COc1ccnc(NCc2ccccc2Cn2cccn2)n1	-0.2704%
CC(=O)N[C@@H](CC(C)C)C(=O)N1CCC(n2cc(CC(C)C)nn2)CC1	-1.289%
COc1ccc(CNC2CCC(O)CC2)cc1OCCCC#N (centres undefined)	-98.92%
CC(C)n1nc2c(cc1=O)CN(CCOc1ccccc1C#N)CC2	32.1%
COCCC(=O)N1CCC2(CCN(Cc3ccc(OC)c(F)c3)C2)C1 (centres undefined)	2.865%
CNC(=O)Cc1ccc(-n2ccnc2-c2ccc(C(=O)O)s2)cc1	5.506%
[H][C@]12CN(CC3CC3)C(=O)[C@@]1([H])CN(c1cnccn1)C2	-11.08%
CN1CCC(N2CCCC(C(=O)N3Cc4ccccc4C3)C2)CC1 (centres undefined)	20.99%
COc1ccccc1OCCc1nnc(NC(=O)C2CC23CCC3)s1 (centres undefined)	-10.93%
CS(=O)(=O)N1CCC(n2nnn(-c3ccccc3)c2=O)CC1	-5.032%
CS(=O)(=O)N1CCC(Oc2ccc(C#N)cc2)CC1	2.878%
CCNC(=O)C1CCCN1S(=O)(=O)c1sc(=O)[nH]c1C (centres undefined)	19.22%
CCOc1ccc(Cl)cc1C1CCCCN1.Cl (centres undefined)	7.229%
[H][C@@]12CCN(C(=O)c3cnc(CC)nc3)C[C@@]([H])(CC1)N2C	18.94%
CC(C)Cc1noc(CN2CCN(C(=O)c3cccc(F)c3)CC2)n1	16.38%
Cc1cc(C)n(C2CN(C(=O)Cn3c(C)cc(=O)c4ccccc43)C2)n1	-58.42%
COc1ccc(F)c(CN2CCCC3(CCN(C(=O)CSC)C3)C2)c1 (centres undefined)	7.896%
CCC(C)CN(C)C(=O)NCc1ccccc1-n1cccn1 (centres undefined)	-2.249%
COCCOc1ccc(NC(=O)N(CCO)C2CC2)cn1	5.522%
CN1CCN(c2ccc(F)cc2C(N)=O)CC1	1.562%
CCOCc1cccc(NC(=O)C2COCCO2)c1 (centres undefined)	-0.8336%
Cc1cc(NC(=O)N2CCN(C)CC2C)n(Cc2ccccc2)n1 (centres undefined)	25.82%
Cc1ccc(N2CCCC(NC(=O)Cc3csc(C)n3)C2=O)cc1 (centres undefined)	-20.05%
COc1ccc(C[C@H]2CN(Cc3ccoc3)CC[C@@H]2OC)cc1.O=C(O)C(F)(F)F	7.537%
CC(=O)c1ccn(CC(=O)Nc2nn(CC3CC3)c3ccccc23)n1	23.92%

12 of the entries, repeated:

- CCc1noc(CN2CCN(C(=O)OC(C)(C)C)C(C)C2)n1 (centres undefined) : -1.305%
- CCN(Cc1noc(C2CC2)n1)C(=O)c1onc2ccccc12 : 28.23%
- COc1cc(Oc2ncccc2C(F)(F)F)ccc1CN1CCCC1 : 31.37%
- O=C(c1ccco1)N1CCCC(c2cc(C(F)F)n3ncnc3n2)C1 (centres undefined) : -4.595%
- O=C(O)C(F)(F)F.O=C(O)C(F)(F)F.c1csc(CN2CCCn3cnc(CN4CCCC4)c3C2)c1 : -29%
- CCNC(=O)NC(c1ccc(C)cc1)c1cccc(S(C)(=O)=O)c1 (centres undefined) : 5.299%
- Cc1cc(NC(=O)N2CCN(C)CC2C)n(Cc2ccccc2)n1 (centres undefined) : 25.82%
- COc1ccc(Cc2c(O)nc(SC)n(-c3ccccc3)c2=O)cc1 : -12.72%
- CCOc1ccc(Cl)cc1C1CCCCN1.Cl (centres undefined) : 7.229%
- Cn1ncc2c(=O)[nH]c(CN3CCCC3Cc3ccccc3)nc21 (centres undefined) : -9.899%
- CCn1ncc2c1C(COCC1CC1)N(Cc1nccs1)CC2.O=C(O)C(F)(F)F.O=C(O)C(F)(F)F (centres undefined) : 29.25%
- COc1cccc2sc(OC3CN(C(=O)C4=COCCO4)C3)nc12 : 4.283%